# A negative result means that nothing was seen under these conditions. For some assays here: For at least one entry, the source does not settle the construct or the ends of the probe.
# By UniProt entry, the sequences of proteins in these tests, tags left out. Residues count along the entry.
# UniProt P02769, 25-607: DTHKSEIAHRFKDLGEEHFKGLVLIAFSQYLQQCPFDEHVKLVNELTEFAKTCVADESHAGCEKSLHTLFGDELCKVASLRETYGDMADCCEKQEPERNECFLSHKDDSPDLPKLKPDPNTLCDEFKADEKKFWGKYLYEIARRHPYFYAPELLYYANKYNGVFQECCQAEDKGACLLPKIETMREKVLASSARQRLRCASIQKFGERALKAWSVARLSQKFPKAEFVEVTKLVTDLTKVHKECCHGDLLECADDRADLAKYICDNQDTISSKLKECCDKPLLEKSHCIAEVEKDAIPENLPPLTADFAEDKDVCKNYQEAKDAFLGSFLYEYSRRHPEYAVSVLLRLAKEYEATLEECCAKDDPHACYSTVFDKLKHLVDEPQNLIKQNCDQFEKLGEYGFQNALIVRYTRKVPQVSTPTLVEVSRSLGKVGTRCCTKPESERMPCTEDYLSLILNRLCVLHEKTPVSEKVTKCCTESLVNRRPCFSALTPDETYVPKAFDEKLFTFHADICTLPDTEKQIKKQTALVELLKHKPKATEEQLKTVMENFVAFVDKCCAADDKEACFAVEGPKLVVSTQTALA
# How the values were obtained:
# [1] = system: hemoglobin; assay: strand-displacement release of rhodamine 6G and Apixaban from gated NMOFs (fluorescence); settings: 1 uM protein, background release only; strand 2 (anchor): 5'-NH2-(CH2)6, DBCO-modified, clicked to azide-functionalized UiO-68 NMOF; 10 mM HEPES pH 7.4, 20 mM NaCl, 10 mM KCl, 10 mM MgCl2; 30 min; temperature not stated; commercial protein
# [2] = target: bovine serum albumin (BSA) (bovine) (UniProt P02769); assay: as above; settings: 1 uM protein, background release only; strand 2 (anchor): 5'-NH2-(CH2)6, DBCO-modified, clicked to azide-functionalized UiO-68 NMOF; 10 mM HEPES pH 7.4, 20 mM NaCl, 10 mM KCl, 10 mM MgCl2; 30 min; temperature not stated; commercial protein
sequence,measurement,setting,value
GGTTGGTGTGGTTGGTTTT / AAAACCAACCA,binding result,[1],no binding
same,binding result,[2],no binding

# — publication PMC6929137
